Reference: doi:10.1101/2020.06.07.138792
Construct, isoform or probe ends are uncertain for at least one entry. Results from cells or extracts need not show a direct contact. At least one verdict rests on a figure or table, not on a statement of the authors.

By UniProt entry, the sequences of proteins in these tests, tags left out. Where a name states a change or a piece, a line headed by the entry shows the natural chain unless it says otherwise.
UniProt P54577: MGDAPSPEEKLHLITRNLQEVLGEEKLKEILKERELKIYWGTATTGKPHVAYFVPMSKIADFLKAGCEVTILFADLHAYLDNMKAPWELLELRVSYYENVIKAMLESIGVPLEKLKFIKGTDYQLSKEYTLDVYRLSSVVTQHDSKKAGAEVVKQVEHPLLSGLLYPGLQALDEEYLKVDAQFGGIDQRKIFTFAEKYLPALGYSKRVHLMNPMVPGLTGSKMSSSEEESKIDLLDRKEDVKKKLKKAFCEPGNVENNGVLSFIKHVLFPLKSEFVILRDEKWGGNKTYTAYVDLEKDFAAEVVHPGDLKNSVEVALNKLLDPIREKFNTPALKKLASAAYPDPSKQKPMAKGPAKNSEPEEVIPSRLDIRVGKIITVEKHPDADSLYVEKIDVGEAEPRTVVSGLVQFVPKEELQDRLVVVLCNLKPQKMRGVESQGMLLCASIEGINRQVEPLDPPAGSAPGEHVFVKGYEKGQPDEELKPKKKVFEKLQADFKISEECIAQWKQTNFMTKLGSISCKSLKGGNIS

Target: TyrRS-V5 in nuclear extract (UniProt P54577)
Test: EMSA supershift
Settings: anti-V5 antibody, protein in an extract

## ACTCTCTGCTGCTCCTCACTTTTTCCGG (double strand) [DNA (WT), TyrRS binding site on the TyrRS gene, 28 bp]
  binding result: binds
